No constants are given. Whether binding was seen depends on the method and setting. Binding seen in cells or lysates may run through a third protein. Some binding calls cover weakened binding; strength is not graded here.

Amino acid sequences for entries named in this document (tags omitted). A change or cut given only in a name is not applied to a line headed by its entry.
UniProt P31749: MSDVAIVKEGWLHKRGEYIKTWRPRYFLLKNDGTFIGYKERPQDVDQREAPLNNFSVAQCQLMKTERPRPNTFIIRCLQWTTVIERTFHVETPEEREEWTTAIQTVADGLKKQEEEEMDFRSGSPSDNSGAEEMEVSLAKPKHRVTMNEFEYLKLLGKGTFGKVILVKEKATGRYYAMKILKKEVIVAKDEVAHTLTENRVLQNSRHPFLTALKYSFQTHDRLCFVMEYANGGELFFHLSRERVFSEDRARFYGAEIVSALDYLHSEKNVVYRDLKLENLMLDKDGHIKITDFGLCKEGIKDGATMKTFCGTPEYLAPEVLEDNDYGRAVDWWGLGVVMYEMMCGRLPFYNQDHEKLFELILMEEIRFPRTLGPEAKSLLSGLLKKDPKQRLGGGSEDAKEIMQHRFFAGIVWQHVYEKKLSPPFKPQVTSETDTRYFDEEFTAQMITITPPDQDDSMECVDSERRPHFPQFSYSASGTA
UniProt O43707: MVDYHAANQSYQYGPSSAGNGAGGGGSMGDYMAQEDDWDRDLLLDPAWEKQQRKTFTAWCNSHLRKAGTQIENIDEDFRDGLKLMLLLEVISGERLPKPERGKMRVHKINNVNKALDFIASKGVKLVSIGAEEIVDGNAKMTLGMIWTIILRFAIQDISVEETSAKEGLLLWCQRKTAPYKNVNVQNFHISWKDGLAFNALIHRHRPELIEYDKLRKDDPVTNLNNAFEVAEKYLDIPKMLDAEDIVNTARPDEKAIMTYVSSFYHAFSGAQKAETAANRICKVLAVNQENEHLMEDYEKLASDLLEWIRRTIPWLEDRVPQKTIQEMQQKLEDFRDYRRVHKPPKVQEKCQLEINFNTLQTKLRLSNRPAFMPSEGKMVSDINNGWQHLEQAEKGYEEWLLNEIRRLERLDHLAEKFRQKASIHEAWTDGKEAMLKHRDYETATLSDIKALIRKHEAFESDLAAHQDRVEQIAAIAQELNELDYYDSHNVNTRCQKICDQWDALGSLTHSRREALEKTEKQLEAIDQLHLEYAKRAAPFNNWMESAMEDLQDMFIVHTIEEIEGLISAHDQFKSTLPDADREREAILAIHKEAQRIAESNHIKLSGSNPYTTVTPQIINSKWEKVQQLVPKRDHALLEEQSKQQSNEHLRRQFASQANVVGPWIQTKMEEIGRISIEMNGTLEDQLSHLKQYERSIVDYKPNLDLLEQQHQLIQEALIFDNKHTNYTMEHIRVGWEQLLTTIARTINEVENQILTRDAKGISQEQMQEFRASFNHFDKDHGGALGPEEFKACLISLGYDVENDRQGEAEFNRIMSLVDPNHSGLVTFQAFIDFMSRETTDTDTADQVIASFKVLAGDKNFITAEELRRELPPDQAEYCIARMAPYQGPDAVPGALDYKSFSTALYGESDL

The assay has as its target IFPN-AKT1 (UniProt P31749). Kind of assay: split reporter; protein-fragment complementation of IFP fragments, fluorescence of co-expressing cells; cell line and conditions not told, no figure, sentence ends with ref. 12.

As to “IFPC-ACTN4Δ310-911 (from UniProt O43707 1-309) (domain or fragment)”, the binding result was “no binding”.
Consider IFPC-ACTN4 (from UniProt O43707 1-911), for which the binding result is “binds”.

These data come from article PMC2845649.
